Test results as given in publication PMC12271568.
These are yes or no findings as the source states them, for the method shown. In cells and extracts the contact can be indirect. A yes stands for co-enrichment or nearness to the bait. Other partners may have been found.

Chains of the proteins cited; added tags and fusions are not shown. Residues count along the entry.
UniProt O15455, residues 24-904: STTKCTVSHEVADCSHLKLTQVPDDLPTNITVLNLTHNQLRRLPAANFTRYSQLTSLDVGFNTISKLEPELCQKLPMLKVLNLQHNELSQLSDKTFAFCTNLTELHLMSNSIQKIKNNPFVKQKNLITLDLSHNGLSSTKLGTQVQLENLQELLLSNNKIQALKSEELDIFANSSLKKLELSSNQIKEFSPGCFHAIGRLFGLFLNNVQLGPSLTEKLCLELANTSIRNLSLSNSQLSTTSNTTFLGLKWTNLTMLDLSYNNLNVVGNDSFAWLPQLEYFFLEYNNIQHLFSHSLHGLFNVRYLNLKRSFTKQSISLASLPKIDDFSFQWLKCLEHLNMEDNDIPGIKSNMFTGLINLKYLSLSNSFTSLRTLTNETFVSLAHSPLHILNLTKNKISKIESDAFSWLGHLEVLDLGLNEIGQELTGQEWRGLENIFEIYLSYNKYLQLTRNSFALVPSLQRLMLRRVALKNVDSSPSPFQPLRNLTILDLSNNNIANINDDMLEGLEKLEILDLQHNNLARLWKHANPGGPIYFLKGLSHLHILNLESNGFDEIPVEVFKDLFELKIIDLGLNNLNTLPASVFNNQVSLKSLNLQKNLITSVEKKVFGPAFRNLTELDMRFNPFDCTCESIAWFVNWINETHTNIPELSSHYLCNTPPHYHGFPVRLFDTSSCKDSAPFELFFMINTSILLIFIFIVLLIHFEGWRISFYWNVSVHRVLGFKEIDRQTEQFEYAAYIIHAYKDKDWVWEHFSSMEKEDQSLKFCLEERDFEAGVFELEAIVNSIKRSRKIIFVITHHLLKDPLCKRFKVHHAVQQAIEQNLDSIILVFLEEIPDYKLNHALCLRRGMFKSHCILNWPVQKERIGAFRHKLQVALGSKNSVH
UniProt P14618: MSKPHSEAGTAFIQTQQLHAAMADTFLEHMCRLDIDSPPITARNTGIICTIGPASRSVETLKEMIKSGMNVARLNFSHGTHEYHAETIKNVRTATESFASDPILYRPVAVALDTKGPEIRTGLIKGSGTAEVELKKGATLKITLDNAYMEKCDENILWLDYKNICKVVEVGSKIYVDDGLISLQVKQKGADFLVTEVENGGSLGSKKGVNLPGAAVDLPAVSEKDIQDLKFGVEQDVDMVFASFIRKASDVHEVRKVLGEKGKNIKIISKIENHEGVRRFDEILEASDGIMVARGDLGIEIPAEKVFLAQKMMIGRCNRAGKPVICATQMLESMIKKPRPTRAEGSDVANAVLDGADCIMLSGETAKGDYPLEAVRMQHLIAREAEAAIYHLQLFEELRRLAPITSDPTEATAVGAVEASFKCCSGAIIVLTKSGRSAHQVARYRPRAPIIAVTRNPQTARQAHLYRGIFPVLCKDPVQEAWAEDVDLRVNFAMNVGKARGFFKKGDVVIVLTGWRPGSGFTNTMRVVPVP
UniProt O14744: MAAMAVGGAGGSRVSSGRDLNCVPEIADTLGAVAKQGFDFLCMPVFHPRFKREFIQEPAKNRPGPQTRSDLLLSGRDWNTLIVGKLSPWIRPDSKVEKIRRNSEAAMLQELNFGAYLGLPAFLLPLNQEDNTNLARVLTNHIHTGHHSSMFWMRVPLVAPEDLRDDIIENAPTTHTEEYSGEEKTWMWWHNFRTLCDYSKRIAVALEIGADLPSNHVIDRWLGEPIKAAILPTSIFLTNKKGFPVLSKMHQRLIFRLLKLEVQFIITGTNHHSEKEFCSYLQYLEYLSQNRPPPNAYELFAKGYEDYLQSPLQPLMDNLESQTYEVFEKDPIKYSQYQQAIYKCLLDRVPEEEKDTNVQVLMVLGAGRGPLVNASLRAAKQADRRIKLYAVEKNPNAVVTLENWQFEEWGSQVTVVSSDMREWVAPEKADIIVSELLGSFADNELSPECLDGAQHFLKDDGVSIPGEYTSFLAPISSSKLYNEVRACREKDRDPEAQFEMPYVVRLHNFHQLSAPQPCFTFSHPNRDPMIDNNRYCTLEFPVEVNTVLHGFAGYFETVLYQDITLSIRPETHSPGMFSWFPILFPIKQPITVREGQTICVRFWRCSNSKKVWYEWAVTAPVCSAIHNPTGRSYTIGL
UniProt O96013: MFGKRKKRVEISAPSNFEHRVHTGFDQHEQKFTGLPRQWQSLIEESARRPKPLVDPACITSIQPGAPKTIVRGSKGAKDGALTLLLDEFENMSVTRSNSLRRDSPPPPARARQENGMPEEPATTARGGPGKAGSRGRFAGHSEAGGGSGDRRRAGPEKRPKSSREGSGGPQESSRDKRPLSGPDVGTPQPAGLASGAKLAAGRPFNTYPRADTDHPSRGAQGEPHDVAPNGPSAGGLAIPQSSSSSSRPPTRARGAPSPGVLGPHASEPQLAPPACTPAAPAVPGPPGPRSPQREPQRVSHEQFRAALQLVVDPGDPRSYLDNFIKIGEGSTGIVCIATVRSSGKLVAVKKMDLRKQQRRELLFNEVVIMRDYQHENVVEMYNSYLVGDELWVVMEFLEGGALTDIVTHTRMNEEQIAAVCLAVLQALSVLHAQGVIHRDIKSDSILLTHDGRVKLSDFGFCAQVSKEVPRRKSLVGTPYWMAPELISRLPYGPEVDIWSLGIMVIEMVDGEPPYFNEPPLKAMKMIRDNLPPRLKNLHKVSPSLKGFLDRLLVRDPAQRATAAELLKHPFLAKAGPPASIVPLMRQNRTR

What was measured:
[1] = target: Flag-TLR3 (Toll-like receptor 3) (UniProt O15455); assay: affinity purification with mass spectrometry; nuclear and cytoplasmic fractions of Panc1 cells overexpressing TLR3; anti-Flag M2 beads; eluted with IP lysis buffer at 98 °C for 10 min; SDS-PAGE, silver stain, bands cut, nanoLC-MS/MS
[2] = target: Flag-TLR3 (Toll-like receptor 3) (UniProt O15455); assay: affinity purification with mass spectrometry; Panc1 cells with mock and Flag-TLR3 overexpression; anti-Flag M2 beads; eluted with sample buffer at 98 °C for 10 min; SDS-PAGE, silver stain, bands cut, nanoLC-MS/MS; TLR3-binding proteins in the nucleus

binding [1] | binding [2] | Molecule
binds | – | PKM (from UniProt P14618 1-531)
– | binds | protein arginine methyltransferase 5 (PRMT5) (from UniProt O14744 1-637)
binds | – | PAK4 (from UniProt O96013 1-591)
binds | – | RIOK1 (protein, UniProt Q9BRS2 1-568) MDYRRLLMSRVVPGQFDDADSSDSENRDLKTVKEKDDILFEDLQDNVNENGEGEIEDEEEEGYDDDDDDWDWDEGVGKLAKGYVWNGGSNPQANRQTSDSSSAKMSTPADKVLRKFENKINLDKLNVTDSVINKVTEKSRQKEADMYRIKDKADRATVEQVLDPRTRMILFKMLTRGIITEINGCISTGKEANVYHASTANGESRAIKIYKTSILVFKDRDKYVSGEFRFRHGYCKGNPRKMVKTWAEKEMRNLIRLNTAEIPCPEPIMLRSHVLVMSFIGKDDMPAPLLKNVQLSESKARELYLQVIQYMRRMYQDARLVHADLSEFNMLYHGGGVYIIDVSQSVEHDHPHALEFLRKDCANVNDFFMRHSVAVMTVRELFEFVTDPSITHENMDAYLSKAMEIASQRTKEERSSQDHVDEEVFKRAYIPRTLNEVKNYERDMDIIMKLKEEDMAMNAQQDNILYQTVTGLKKDLSGVQKVPALLENQVEERTCSDSEDIGSSECSDTDSEEQGDHARPKKHTTDPDIDKKERKKMVKEAQREKRKNKIPKHVKKRKEKTAKTKKGK
